PubChem BioAssay AID1259254 – NCATS, 2017
Test: 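Genome-wide screen for genes that prevent DNA re-replication in cancer cells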 (primary screen). Cells: human HCT116 colorectal cancer cells. Reagent: single siRNA against human genes. Time to read-out: 3 days. Detection: 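Imaged Hoechst DNA stain sorts each cell into a cycle phase by DNA amount; per plate, G2 fraction set to 0% for non-targeting and 100% for GMNN siRNA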. Reading the numbers: G2 robust z-score and G2 cells, % of GMNN control: higher = more G2 cells, more excess DNA replication. Active means: 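An siRNA counts as active if its G2 robust z-score lies at least 5 MADs above the screen median; here such calls match roughly 38% of GMNN control or more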.
In all, the deposit lists about 59,000 reagents; shown is an unselected part. About 1,550 of all reagents (2.6%) were called active. 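G2 share is only a proxy for re-replication; each gene was hit by three separate siRNAs, and active genes were retested.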 The numbers tell different reagents against one gene apart. Further read-outs or replicates are left out here. Reagent sequences are not shown. Not given: the amount of reagent.

gene knocked down	siRNA no.	G2 robust z-score	G2 cells, % of GMNN control	call
NUFIP2	1	-0.472	-0.353	inactive
NUFIP2	2	-0.819	-2.79	inactive
NUFIP2	3	1.62	14.3	inactive
PAK1	1	-0.0447	2.65	inactive
PAK1	2	-0.792	-2.6	inactive
PAK1	3	-0.352	0.492	inactive
TWSG1	1	0.997	9.99	inactive
TWSG1	2	-0.65	-1.6	inactive
TWSG1	3	6.02	45.3	active
PSMA5	1	3.96	30.8	inactive
PSMA5	2	2.23	18.7	inactive
PSMA5	3	3.68	28.9	inactive
GPHRA	1	-0.896	-3.34	inactive
GPHRA	2	-0.497	-0.528	inactive
GPHRA	3	1.47	13.3	inactive
CABP5	1	-0.535	-0.794	inactive
CABP5	2	-0.255	1.17	inactive
CABP5	3	-0.965	-3.82	inactive
ZMYND12	1	2.48	20.4	inactive
ZMYND12	2	-0.418	0.0286	inactive
ZMYND12	3	2.74	22.2	inactive
RHNO1	1	0.421	5.93	inactive
RHNO1	2	-0.331	0.64	inactive
RHNO1	3	0.628	7.39	inactive
NPVF	1	2.43	20.1	inactive
NPVF	2	-0.511	-0.628	inactive
NPVF	3	-0.268	1.08	inactive
ACOT2	1	-1.36	-6.6	inactive
ACOT2	2	0.229	4.58	inactive
ACOT2	3	0.109	3.74	inactive
SERINC2	1	-0.684	-1.85	inactive
SERINC2	2	0.842	8.89	inactive
SERINC2	3	4.89	37.4	inactive
OPTN	1	-0.0804	2.4	inactive
OPTN	2	-0.644	-1.56	inactive
OPTN	3	2.34	19.4	inactive
SCN7A	1	-1.26	-5.9	inactive
SCN7A	2	0.912	9.38	inactive
SCN7A	3	3.33	26.4	inactive
RGN	1	-0.153	1.89	inactive
RGN	2	1.58	14.1	inactive
RGN	3	3.63	28.5	inactive
KCNMB2	1	-0.451	-0.208	inactive
KCNMB2	2	0.0431	3.27	inactive
KCNMB2	3	3.31	26.2	inactive
LYPLAL1	1	2.81	22.8	inactive
LYPLAL1	2	0.916	9.41	inactive
LYPLAL1	3	-0.912	-3.45	inactive
PTPRB	1	-0.445	-0.165	inactive
PTPRB	2	-0.086	2.36	inactive
PTPRB	3	0.668	7.66	inactive
JPT1	1	4.84	37	inactive
JPT1	2	-0.546	-0.877	inactive
JPT1	3	4.6	35.3	inactive
AMTN	1	0.904	9.33	inactive
AMTN	2	-0.795	-2.62	inactive
AMTN	3	-0.542	-0.847	inactive
IFNA5	1	-0.725	-2.13	inactive
IFNA5	2	-0.0825	2.39	inactive
IFNA5	3	0.491	6.42	inactive
MBD3	1	-0.0911	2.33	inactive
MBD3	2	-0.127	2.07	inactive
MBD3	3	1.38	12.7	inactive
VAC14	1	-0.951	-3.72	inactive
VAC14	2	0.0366	3.23	inactive
VAC14	3	-1.41	-6.99	inactive
WRAP53	1	-0.381	0.287	inactive
WRAP53	2	-0.217	1.44	inactive
WRAP53	3	2.38	19.7	inactive

A run of entries of the results above:
gene knocked down	siRNA no.	G2 robust z-score	G2 cells, % of GMNN control	call
CABP5	3	-0.965	-3.82	inactive
ZMYND12	1	2.48	20.4	inactive
ZMYND12	2	-0.418	0.0286	inactive
ZMYND12	3	2.74	22.2	inactive
RHNO1	1	0.421	5.93	inactive
RHNO1	2	-0.331	0.64	inactive
